Two molecules from paper PMC6572767 can be followed below.

Chains of the proteins cited; added tags and fusions are not shown. Residues count along the entry.
UniProt P11362, residues 22-822: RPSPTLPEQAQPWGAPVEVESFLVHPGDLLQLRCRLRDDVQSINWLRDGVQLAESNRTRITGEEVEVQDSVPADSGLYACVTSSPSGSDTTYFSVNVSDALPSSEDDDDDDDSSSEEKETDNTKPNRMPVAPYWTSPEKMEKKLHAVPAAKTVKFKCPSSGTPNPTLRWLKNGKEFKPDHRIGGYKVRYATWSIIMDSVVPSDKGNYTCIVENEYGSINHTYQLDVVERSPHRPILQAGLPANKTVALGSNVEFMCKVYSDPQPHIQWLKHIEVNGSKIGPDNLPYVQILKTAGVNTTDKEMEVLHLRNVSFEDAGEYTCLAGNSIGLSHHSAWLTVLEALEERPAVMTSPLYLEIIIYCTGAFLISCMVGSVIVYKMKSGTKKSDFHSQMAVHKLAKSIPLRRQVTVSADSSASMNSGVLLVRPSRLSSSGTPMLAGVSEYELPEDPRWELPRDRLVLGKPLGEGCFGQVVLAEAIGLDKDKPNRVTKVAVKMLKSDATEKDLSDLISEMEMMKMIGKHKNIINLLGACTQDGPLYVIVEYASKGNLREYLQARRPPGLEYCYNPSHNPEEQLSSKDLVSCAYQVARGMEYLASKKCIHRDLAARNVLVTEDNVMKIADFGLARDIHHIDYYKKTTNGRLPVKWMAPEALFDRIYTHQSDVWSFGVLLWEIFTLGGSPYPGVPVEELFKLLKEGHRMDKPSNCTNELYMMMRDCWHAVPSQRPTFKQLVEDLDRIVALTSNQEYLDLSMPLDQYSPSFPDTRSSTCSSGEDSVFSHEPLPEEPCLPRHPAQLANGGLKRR
UniProt Q15418: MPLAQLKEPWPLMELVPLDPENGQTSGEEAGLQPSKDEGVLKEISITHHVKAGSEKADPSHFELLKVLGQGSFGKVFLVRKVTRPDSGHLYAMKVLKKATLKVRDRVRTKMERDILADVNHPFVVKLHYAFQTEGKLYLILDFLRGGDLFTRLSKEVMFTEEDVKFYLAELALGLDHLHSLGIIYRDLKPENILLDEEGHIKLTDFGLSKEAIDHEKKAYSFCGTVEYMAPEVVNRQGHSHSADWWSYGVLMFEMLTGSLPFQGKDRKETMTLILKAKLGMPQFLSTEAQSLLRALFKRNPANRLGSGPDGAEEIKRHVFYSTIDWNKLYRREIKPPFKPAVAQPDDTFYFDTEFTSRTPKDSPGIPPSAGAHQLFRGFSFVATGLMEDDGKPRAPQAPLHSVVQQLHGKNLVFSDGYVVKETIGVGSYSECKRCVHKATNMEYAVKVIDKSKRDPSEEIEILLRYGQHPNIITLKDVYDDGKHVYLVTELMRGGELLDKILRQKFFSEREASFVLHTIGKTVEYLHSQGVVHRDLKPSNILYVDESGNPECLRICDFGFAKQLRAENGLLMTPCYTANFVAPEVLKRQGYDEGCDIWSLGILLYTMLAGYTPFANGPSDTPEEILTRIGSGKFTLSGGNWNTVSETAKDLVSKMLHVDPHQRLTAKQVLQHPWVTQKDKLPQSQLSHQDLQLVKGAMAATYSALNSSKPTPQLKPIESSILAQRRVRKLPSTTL

The target of the experiment is streptavidin-binding peptide (SBP)-tagged FGFR1 (UniProt P11362). The experiment in a line: affinity purification with mass spectrometry; SBP-FGFR1 from U2OS-SBP-R1 lysate held on Streptavidin Agarose overnight at 4 °C; cells serum starved 4 h, Pitstop2 30 μM 15 min, FGF1 100 ng/ml and heparin 10 U/ml 15 min; control U2OS-R1 cells (untagged FGFR1); 5 repeats.

Results are given in words; binding and its absence hold for the method and conditions named. Binding seen in cells or lysates may run through a third protein. A yes stands for co-enrichment or nearness to the bait. Other partners may have been found.

In the case of “RSK1 (Ribosomal S6-kinase) (from UniProt Q15418 1-735) (enzyme)”, the binding entry is “binds”.

B1: EGF-like repeat and discoidin I-like domain-containing protein 3 (protein, UniProt O43854 24-480)
chain: DICDPNPCENGGICLPGLADGSFSCECPDGFTDPNCSSVVEVASDEEEPTSAGPCTPNPCHNGGTCEISEAYRGDTFIGYVCKCPRGFNGIHCQHNINECEVEPCKNGGICTDLVANYSCECPGEFMGRNCQYKCSGPLGIEGGIISNQQITASSTHRALFGLQKWYPYYARLNKKGLINAWTAAENDRWPWIQINLQRKMRVTGVITQGAKRIGSPEYIKSYKIAYSNDGKTWAMYKVKGTNEDMVFRGNIDNNTPYANSFTPPIKAQYVRLYPQVCRRHCTLRMELLGCELSGCSEPLGMKSGHIQDYQITASSIFRTLNMDMFTWEPRKARLDKQGKVNAWTSGHNDQSQWLQVDLLVPTKVTGIITQGAKDFGHVQFVGSYKLAYSNDGEHWTVYQDEKQRKDKVFQGNFDNDTHRKNVIDPPIYARHIRILPWSWYGRITLRSELLGCTEEE
In the case of B1, the binding result is listed as “binds”.
